For at least one entry, the source does not settle the construct or the ends of the probe. For some assays here: At least one verdict rests on a figure or table, not on a statement of the authors. Where a protein sequence is shown, tags need not be part of it.
How the values were obtained:
RIG-I [1] = biological target: T1, RIG-I (UniProt O95786); experiment: competition (fluorescence polarization); settings: 0.5 mM ATP, vs labeled 5' PPP ds39; 5' triphosphate on strand 1; 3-nt 5' DNA overhang on strand 2; 50 mM MOPS pH 7.4, 5 mM DTT, 5 mM MgCl2, 0.01% Tween20; 25 C (ATPase, 2 mM ATP; FP, 0.5 mM ATP); EMSA 4 C with 2 mM ATP, 75 nM RIG-I, 25 nM RNA; recombinant protein; residues 1-925
T1 sequence (looked up): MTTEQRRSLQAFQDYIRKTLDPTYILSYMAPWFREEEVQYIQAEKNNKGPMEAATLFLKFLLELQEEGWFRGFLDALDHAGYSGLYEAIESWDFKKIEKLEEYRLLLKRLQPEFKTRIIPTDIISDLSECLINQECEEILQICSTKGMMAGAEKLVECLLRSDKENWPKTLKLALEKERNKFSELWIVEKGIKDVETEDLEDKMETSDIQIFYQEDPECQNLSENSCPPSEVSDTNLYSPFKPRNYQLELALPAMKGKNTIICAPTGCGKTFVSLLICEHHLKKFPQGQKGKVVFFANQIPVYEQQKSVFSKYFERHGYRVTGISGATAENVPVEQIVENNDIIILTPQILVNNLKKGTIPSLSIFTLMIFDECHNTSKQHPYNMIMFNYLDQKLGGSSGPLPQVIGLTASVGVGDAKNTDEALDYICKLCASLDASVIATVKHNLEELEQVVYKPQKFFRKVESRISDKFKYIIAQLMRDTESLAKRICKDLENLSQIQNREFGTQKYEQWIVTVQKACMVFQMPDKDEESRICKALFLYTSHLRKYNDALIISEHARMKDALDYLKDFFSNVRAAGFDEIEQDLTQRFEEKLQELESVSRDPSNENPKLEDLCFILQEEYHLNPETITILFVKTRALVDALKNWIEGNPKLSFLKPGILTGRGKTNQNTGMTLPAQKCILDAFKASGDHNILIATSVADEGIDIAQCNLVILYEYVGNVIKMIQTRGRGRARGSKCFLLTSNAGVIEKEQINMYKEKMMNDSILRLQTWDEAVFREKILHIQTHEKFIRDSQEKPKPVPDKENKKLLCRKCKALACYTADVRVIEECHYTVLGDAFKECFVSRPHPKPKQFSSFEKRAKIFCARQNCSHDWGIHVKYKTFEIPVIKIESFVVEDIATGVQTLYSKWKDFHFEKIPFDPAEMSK

RIG-I [2] = biological target: T1, RIG-I; experiment: EMSA; settings: 2 mM ATP, dimers and trimers, first 3 nt of strand 2 are DNA (dTdTdT), 50 mM MOPS pH 7.4, 5 mM DTT, 5 mM MgCl2, 0.01% Tween20, 25 C (ATPase, 2 mM ATP), EMSA 4 C with 2 mM ATP, 75 nM RIG-I, 25 nM RNA, recombinant protein, residues 1-925, label: fluorescein on second T of strand 2
RIG-I [3] = biological target: T1, RIG-I; experiment: RNA-dependent ATPase titration (KD,app); settings: 2 mM ATP, 5 mM Mg2+; 5' dephospho-CoA cap on strand 1; first 3 nt of strand 2 are DNA (dTdTdT); partly disulfide-linked RNA dimer; 50 mM MOPS pH 7.4, 5 mM DTT, 5 mM MgCl2, 0.01% Tween20; 25 C (ATPase, 2 mM ATP); recombinant protein; residues 1-925; label: fluorescein on second T of strand 2

Sequence: AGUUGGUGGUUGUUGUGUGUUUGUGGUUGGUUUGUUUGG / TTTCCAAACAAACCAACCACAAACACACAACAACCACCAACU [5' PPP ds39, unlabeled competitor]
- binding result (RIG-I [1]): binds

Sequence: AGUUGGUGGUUGUUGUGUGUUUGUGGUUGGUUUGUUUGG / TTTCCAAACAAACCAACCACAAACACACAACAACCACCAACU [5' FAD ds39]
- binding result (RIG-I [2]; 5' FAD cap on strand 1): binds

Sequence: AGUUGGUGGUUGUUGUGUGUUUGUGGUUGGUUUGUUUGG / TTTCCAAACAAACCAACCACAAACACACAACAACCACCAACU [5' NAD+ ds39]
- binding result (RIG-I [2]; 5' NAD+ cap on strand 1): binds

Sequence: AGUUGGUGGUUGUUGUGUGUUUGUGGUUGGUUUGUUUGG / TTTCCAAACAAACCAACCACAAACACACAACAACCACCAACU [5' dephospho-CoA ds39]
- binding result (RIG-I [2]; 5' dephospho-CoA cap on strand 1, partly disulfide-linked RNA dimer): binds
- Kd (RIG-I [3]): 6.4 nM
